The supplement of paper PMC10849652
The other results are listed elsewhere or left out.

Chains of the proteins cited; added tags and fusions are not shown. Lines headed by an entry give the natural chain unless they say otherwise; changes in a name come on top.
UniProt P47756, whole entry, looked up: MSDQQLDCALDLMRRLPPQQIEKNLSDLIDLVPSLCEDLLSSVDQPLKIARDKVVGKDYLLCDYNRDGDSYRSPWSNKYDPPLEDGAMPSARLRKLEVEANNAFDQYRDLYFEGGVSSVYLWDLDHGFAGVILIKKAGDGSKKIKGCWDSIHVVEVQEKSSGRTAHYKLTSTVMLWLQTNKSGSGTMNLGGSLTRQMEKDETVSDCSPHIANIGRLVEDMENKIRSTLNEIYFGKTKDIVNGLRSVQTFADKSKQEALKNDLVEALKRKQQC
UniProt P22676: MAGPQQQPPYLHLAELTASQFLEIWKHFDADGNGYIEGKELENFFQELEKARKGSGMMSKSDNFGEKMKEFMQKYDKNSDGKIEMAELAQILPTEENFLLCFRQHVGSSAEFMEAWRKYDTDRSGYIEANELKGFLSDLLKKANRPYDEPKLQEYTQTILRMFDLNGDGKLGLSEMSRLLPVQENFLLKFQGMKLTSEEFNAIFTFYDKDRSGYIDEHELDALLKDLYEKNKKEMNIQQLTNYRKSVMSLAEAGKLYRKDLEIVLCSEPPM
UniProt Q86YS7: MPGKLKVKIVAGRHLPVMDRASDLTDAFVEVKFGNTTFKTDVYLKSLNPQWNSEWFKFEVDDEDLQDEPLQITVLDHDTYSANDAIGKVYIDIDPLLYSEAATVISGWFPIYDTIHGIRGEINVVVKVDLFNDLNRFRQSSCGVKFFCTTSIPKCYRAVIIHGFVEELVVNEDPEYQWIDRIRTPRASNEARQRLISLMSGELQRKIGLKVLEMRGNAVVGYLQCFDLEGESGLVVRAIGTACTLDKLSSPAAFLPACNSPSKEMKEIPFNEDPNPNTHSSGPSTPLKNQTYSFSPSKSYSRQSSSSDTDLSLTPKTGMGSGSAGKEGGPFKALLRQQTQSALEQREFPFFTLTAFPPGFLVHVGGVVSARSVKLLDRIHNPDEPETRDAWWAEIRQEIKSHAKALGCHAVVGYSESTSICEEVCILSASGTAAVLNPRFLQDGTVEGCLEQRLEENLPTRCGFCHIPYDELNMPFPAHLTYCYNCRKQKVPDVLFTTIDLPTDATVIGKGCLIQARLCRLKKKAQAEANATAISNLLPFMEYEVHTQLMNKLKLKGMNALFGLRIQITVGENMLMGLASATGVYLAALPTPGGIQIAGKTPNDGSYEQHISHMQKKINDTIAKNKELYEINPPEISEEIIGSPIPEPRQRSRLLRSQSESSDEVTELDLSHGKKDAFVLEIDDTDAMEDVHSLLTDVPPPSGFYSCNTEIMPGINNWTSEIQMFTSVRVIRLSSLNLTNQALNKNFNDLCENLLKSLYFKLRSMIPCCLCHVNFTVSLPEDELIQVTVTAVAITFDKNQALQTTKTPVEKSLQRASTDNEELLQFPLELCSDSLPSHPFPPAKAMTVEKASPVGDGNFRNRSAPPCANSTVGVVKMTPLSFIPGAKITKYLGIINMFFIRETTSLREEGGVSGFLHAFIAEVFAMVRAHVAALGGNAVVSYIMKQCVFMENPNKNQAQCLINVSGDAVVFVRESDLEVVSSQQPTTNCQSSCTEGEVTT
UniProt Q96B23: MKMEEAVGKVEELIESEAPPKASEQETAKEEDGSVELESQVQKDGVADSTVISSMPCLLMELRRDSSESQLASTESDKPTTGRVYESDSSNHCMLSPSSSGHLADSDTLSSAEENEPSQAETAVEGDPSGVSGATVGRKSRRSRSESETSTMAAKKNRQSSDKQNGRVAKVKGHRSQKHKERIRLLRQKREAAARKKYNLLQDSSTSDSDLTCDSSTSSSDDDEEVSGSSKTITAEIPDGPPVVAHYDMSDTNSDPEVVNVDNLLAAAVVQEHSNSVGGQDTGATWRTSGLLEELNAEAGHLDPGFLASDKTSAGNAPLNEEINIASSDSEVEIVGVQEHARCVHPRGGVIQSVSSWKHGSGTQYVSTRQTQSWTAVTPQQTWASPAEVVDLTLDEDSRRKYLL
UniProt Q96GQ5: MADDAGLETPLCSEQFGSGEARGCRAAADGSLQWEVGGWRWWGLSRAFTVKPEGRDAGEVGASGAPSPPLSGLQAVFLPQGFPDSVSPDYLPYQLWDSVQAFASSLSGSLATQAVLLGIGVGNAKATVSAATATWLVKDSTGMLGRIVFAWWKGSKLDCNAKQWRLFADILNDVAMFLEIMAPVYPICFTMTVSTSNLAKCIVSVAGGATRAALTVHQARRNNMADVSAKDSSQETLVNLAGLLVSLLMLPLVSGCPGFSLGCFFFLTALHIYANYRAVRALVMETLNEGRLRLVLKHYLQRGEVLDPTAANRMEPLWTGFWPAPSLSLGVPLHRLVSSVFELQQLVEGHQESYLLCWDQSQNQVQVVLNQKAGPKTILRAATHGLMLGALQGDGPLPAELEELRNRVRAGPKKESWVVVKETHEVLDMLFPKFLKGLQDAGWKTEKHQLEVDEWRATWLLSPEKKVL
UniProt O00478: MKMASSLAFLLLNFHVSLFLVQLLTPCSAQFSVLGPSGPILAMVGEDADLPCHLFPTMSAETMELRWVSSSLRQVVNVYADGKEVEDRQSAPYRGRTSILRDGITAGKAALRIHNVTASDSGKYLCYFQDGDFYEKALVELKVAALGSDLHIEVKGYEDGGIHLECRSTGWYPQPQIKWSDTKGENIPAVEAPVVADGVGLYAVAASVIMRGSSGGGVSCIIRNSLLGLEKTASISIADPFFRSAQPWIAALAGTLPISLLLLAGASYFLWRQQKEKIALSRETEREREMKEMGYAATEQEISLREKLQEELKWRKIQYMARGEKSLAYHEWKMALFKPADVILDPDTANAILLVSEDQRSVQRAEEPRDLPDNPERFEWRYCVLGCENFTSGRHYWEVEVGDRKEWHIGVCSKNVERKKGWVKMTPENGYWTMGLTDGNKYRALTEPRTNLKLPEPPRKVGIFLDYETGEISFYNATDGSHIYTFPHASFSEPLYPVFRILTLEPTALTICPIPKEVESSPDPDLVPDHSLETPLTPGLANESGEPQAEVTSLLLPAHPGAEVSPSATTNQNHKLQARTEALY
UniProt P05937: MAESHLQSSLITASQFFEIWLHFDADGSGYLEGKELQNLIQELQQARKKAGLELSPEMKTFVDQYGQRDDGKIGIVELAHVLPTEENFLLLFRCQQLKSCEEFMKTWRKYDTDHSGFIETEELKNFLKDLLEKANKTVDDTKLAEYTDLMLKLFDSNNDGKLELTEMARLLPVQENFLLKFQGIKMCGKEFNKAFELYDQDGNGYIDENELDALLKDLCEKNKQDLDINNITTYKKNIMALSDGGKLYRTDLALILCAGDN
UniProt Q13901: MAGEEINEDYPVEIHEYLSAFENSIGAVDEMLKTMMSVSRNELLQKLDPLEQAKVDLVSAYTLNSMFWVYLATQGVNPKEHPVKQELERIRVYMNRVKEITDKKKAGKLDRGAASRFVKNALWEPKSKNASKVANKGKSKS
UniProt P27797, whole entry, looked up: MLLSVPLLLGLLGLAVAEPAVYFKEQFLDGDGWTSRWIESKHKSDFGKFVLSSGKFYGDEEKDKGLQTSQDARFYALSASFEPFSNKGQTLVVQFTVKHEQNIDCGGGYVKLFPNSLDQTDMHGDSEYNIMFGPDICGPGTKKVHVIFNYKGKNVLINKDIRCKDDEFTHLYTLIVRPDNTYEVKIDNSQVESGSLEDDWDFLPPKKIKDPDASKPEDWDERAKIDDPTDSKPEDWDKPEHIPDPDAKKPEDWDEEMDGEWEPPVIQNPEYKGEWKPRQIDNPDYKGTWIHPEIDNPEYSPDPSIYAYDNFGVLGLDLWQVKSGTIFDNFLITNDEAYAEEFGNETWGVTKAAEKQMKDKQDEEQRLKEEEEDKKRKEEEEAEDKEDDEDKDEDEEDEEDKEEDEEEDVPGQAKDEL
UniProt P27708: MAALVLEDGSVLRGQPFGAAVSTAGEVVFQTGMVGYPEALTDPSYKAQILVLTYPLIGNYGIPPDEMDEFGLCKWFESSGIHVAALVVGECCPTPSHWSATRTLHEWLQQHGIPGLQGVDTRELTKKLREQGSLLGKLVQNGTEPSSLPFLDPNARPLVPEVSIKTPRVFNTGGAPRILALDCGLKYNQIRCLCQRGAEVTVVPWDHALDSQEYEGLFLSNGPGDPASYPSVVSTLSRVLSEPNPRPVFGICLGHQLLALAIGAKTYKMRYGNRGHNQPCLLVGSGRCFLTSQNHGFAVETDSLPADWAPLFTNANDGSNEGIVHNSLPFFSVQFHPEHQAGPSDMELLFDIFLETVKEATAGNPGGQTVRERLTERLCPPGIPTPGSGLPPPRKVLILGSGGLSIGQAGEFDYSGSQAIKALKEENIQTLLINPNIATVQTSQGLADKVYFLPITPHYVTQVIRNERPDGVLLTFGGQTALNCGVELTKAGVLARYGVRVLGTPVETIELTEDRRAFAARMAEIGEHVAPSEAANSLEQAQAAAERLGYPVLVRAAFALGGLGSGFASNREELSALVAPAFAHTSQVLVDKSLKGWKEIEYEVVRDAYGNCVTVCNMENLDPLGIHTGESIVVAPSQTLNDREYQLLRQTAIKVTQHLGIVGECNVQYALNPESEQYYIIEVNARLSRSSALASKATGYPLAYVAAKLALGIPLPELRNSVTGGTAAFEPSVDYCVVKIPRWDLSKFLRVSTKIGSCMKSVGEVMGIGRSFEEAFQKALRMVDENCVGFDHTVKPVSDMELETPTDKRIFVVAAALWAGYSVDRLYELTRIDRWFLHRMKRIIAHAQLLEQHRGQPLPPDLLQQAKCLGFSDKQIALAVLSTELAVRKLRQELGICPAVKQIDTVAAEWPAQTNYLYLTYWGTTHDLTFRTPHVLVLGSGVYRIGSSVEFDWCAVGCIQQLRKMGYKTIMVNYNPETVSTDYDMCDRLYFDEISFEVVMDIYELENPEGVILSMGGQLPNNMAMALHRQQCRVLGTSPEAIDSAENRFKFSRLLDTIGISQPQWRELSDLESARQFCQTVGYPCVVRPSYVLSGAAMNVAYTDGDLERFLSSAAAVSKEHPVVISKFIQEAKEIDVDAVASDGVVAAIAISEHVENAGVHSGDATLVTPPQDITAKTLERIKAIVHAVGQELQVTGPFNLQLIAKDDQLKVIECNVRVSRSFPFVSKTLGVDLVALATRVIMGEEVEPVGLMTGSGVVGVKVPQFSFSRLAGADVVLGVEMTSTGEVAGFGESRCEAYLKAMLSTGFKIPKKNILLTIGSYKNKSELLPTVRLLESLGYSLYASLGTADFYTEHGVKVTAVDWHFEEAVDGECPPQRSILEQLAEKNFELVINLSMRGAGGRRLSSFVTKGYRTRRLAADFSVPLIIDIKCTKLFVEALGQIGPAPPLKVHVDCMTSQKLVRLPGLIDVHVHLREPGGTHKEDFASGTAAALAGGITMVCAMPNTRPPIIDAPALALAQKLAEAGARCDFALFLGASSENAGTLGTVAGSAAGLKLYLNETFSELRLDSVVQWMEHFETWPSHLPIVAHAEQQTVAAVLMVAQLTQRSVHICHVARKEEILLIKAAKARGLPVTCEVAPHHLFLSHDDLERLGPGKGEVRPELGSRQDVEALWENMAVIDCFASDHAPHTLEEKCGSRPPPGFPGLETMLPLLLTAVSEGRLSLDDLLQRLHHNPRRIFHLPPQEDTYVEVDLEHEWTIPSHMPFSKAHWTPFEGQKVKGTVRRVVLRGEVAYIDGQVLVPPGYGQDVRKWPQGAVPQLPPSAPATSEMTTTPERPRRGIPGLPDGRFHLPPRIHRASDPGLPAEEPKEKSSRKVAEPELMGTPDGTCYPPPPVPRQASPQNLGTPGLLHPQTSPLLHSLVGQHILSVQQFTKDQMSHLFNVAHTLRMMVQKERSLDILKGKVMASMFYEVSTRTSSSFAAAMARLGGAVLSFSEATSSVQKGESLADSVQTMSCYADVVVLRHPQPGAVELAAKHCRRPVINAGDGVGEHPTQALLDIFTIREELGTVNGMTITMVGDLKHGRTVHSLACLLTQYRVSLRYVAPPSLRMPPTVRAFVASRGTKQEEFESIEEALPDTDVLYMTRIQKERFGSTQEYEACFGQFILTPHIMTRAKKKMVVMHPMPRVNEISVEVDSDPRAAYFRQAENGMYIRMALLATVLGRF
UniProt Q9H3J6: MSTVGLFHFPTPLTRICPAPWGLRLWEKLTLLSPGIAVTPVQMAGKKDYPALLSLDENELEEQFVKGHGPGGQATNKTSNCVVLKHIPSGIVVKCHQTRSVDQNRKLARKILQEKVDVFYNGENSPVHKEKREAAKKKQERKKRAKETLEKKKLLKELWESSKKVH
UniProt Q5T6V5: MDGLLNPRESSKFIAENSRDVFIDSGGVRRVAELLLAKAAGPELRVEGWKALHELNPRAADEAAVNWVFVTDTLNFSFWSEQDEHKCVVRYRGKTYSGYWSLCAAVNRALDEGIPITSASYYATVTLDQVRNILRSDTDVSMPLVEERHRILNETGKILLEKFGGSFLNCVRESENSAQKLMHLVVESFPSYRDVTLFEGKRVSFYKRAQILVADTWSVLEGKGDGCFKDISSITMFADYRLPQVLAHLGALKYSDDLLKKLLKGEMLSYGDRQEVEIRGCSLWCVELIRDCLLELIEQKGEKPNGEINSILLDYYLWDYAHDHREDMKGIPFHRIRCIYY

How the values were obtained:
Experiment in all cases: log2 fold change, soluble protein after heating vs DMSO (PISA); higher = thermal stabilisation; K562 lysate, 10 uM; active = over 0.2 and 3.5 SD of the protein, either way, in both replicates (recomputed)
[1] = compound: C1=CC=C(C=C1)[C@H](COC2=CC3=C(C=C2)NC(=O)N3)NC(=O)C4=CC=CN(C4=O)CC5=CC(=C(C=C5)F)F
In short: (§1)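 Dounce homogenisation of K562 pellets in PBS pH 7.4 with 1 mM MgCl2 produced a crude extract, used at 1 mg/mL protein. Exposure to 10 μM compound lasted 30 min, and aliquots were then heated for 3 min across 48°C-58°C, pooled and brought to 0.5% NP-40 at 4°C. The supernatant after 21,000xg for 90 min was quantified by TMTpro 16plex LC-MS/MS with channel sums equalised. Duplicate values are given as log-two fold change in thermal stability relative to solvent controls.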

[2] = compound: CC1=C(SC2=C1C(=N[C@H](C3=NN=C(N32)C)CC(=O)N)C4=CC=C(C=C4)Cl)C
In short: as §1

[3] = compound: CC1=C2C(=CC=C1)N=C(N(C2=O)C3=CC=CC=C3C)CN4C=NC5=C(N=CN=C54)N
In short: as §1

[4] = compound: Cc1sc2c(c1C)C(c1ccc(Cl)cc1)=N[C@@H](CC(=O)OC(C)(C)C)c1nnc(C)n1-2
In short: as §1

[5] = compound: c1ccc([C@@H]2C[C@H]2NC2CCNCC2)cc1
In short: as §1

Measured: log2 fold change

CAPZB (UniProt P47756)
inactive: [1] 0.005 | [2] 0.003 | [3] -0.013 | [4] 0.023 | [5] 0.028

CAMLG (UniProt P49069)
inactive: [1] 0.058 | [2] 0.003 | [3] 0.018 | [4] 0.05 | [5] 0.074

CALB2 (UniProt P22676)
inactive: [1] -0.067 | [2] -0.053 | [3] 0.009 | [4] -0.007 | [5] 0.013

C3 (UniProt P01024)
inactive: [1] 0.013 | [2] 0.054 | [3] 0.132 | [4] -0.035 | [5] -0.03

CAPNS1 (UniProt U3KPR7)
inactive: [1] 0.019 | [2] 0.122

C16orf70 (UniProt Q9BSU1)
inactive: [1] -0.007 | [2] -0.073 | [3] -0.071 | [4] 0.033

C1orf52 (UniProt Q8N6N3)
inactive: [1] 0.013 | [2] -0.029 | [3] 0.01 | [4] -0.039 | [5] -0.028

CA2 (UniProt P00918)
inactive: [1] -0.058 | [2] 0.013 | [3] -0.064 | [4] -0.224

CAPN15 (UniProt O75808)
inactive: [1] -0.047 | [2] 0.063 | [3] -0.017 | [4] -0.011 | [5] 0.056

CALCOCO1 (UniProt Q9P1Z2)
inactive: [1] -0.006 | [2] 0.031 | [3] 0.042 | [4] 0.029 | [5] 0.053

C2CD5 isoform 3 (UniProt Q86YS7)
inactive: [1] 0.015 | [2] 0.059 | [3] 0.014 | [4] -0.009 | [5] -0.169

C18orf25 (UniProt Q96B23)
inactive: [1] 0.013 | [2] -0.035 | [3] 0.043 | [4] 0.017 | [5] -0.033

C20orf27 isoform 2 (UniProt Q9GZN8)
inactive: [1] -0.016 | [2] 0.035 | [3] -0.033 | [4] 0.025 | [5] 0.043

C1orf50 (UniProt Q9BV19)
inactive: [1] -0.031 | [2] 0.11 | [3] 0.019 | [4] 0.034 | [5] 0.041

C6orf89 isoform 2 (UniProt Q6UWU4)
inactive: [1] 0.058 | [2] -0.065 | [3] -0.036 | [4] -0.033 | [5] 0.047

C16orf87 (UniProt Q6PH81)
inactive: [1] -0.024 | [2] 0.048 | [3] 0.101 | [4] 0.002 | [5] 0.004

C15orf40 (UniProt Q8WUR7)
inactive: [1] 0.027 | [2] -0.067 | [3] -0.009 | [4] -0.025 | [5] -0.031

C16orf58 (UniProt Q96GQ5)
inactive: [1] -0.061 | [2] -0.007 | [3] 0.057 | [4] -0.103 | [5] -0.005

CAPZB isoform 2 (UniProt P47756)
inactive: [1] 0.078 | [2] -0.017 | [3] 0.036 | [4] -0.013 | [5] -0.016

BTN3A3 (UniProt O00478)
inactive: [1] 0.094 | [2] 0.166 | [3] -0.003 | [4] -0.12 | [5] 0.12

BUB3 (UniProt O43684)
inactive: [1] 0.012 | [2] 0.047 | [3] 0.02 | [4] 0.031 | [5] -0.002

CALB1 (UniProt P05937)
inactive: [1] -0.013 | [2] -0.098 | [3] -0.007 | [4] 0 | [5] 0.044

BUD31 (UniProt P41223)
inactive: [1] 0.012 | [2] 0.081 | [3] -0.015 | [4] 0.003 | [5] 0.082

CAMK2B (UniProt Q13554)
inactive: [1] 0.036 | [2] -0.052 | [3] -0.032 | [4] -0.056 | [5] -0.091

C12orf45 (UniProt Q8N5I9)
inactive: [1] 0.074 | [2] 0 | [3] -0.007 | [4] -0.008 | [5] -0.122

CABIN1 (UniProt Q9Y6J0)
inactive: [1] -0.008 | [2] -0.11 | [3] 0.035 | [4] -0.003 | [5] -0.067

3 records picked at random from the list so far:
CALB2 (UniProt P22676)
inactive: [1] -0.067 | [2] -0.053 | [3] 0.009 | [4] -0.007 | [5] 0.013

BUD31 (UniProt P41223)
inactive: [1] 0.012 | [2] 0.081 | [3] -0.015 | [4] 0.003 | [5] 0.082

CAPZB isoform 2 (UniProt P47756)
inactive: [1] 0.078 | [2] -0.017 | [3] 0.036 | [4] -0.013 | [5] -0.016

(listing goes on)

CAB39 (UniProt Q9Y376)
inactive: [1] -0.018 | [2] -0.008 | [3] -0.018 | [4] 0.007 | [5] 0.015

C19orf53 (UniProt Q9UNZ5)
inactive: [1] 0.057 | [2] -0.058 | [3] 0.042 | [4] -0.016 | [5] 0.052

C1D (UniProt Q13901)
inactive: [1] 0.03 | [2] -0.043 | [3] 0.078 | [4] -0.069 | [5] -0.014

CA13 (UniProt Q8N1Q1)
inactive: [1] -0.009 | [2] 0.04 | [3] 0.024 | [4] 0 | [5] -0.023

CAMSAP1 isoform 3 (UniProt Q5T5Y3)
inactive: [1] -0.012 | [2] -0.006 | [3] 0.022 | [4] 0.019 | [5] 0.082

BUB1B isoform 3 (UniProt O60566)
inactive: [1] -0.013 | [2] -0.005 | [3] 0.027 | [4] -0.003 | [5] 0.02

CAND1 (UniProt Q86VP6)
inactive: [1] 0.024 | [2] 0.006 | [3] 0.012 | [4] -0.01 | [5] -0.081

C2orf68 (UniProt Q2NKX9)
inactive: [1] 0.09 | [2] 0.044 | [3] -0.055 | [4] 0.042 | [5] 0.01

CAAP1 (UniProt Q9H8G2)
inactive: [1] -0.007 | [2] 0.026 | [3] 0.026 | [4] -0.086 | [5] -0.085

CALR (UniProt P27797)
inactive: [1] 0.03 | [2] -0.018 | [3] -0.026 | [4] 0.011 | [5] 0.06

CAD (UniProt P27708)
inactive: [1] -0.011 | [2] 0.009 | [3] 0.003 | [4] 0.022 | [5] 0.002

C2orf49 (UniProt Q9BVC5)
inactive: [1] 0.023 | [2] 0 | [3] -0.008 | [4] -0.025 | [5] 0.027

CAPZA1 (UniProt P52907)
inactive: [1] 0.042 | [2] 0.02 | [3] -0.008 | [4] -0.035 | [5] -0.022

CALCOCO2 isoform 4 (UniProt Q13137)
inactive: [1] 0.021 | [2] 0.002 | [3] -0.063 | [4] -0.006 | [5] -0.021

CAMKK2 (UniProt Q96RR4)
inactive: [1] 0.002 | [2] -0.047 | [3] 0.072 | [4] 0.051 | [5] -0.013

C5orf30 (UniProt Q96GV9)
inactive: [1] -0.166 | [2] 0.035 | [3] -0.068 | [4] -0.018 | [5] 0.064

CARD11 (UniProt Q9BXL7)
inactive: [1] 0.193 | [2] 0.252 | [3] 0 | [4] -0.084 | [5] -0.019

C1orf112 (UniProt Q9NSG2)
inactive: [1] 0.066 | [2] -0.011 | [3] -0.007 | [4] 0.066 | [5] -0.345

CAPN2 (UniProt P17655)
inactive: [1] 0.038 | [2] 0.013 | [3] 0.044 | [4] -0.002 | [5] 0.006

C1orf122 (UniProt Q6ZSJ8)
inactive: [1] 0.075 | [2] 0.038 | [3] -0.032 | [4] 0.019 | [5] -0.004

C18orf32 (UniProt Q8TCD1)
inactive: [1] 0.039 | [2] 0.004 | [3] -0.245 | [4] -0.028 | [5] 0.076

BTN2A1 (UniProt Q7KYR7)
inactive: [1] -0.001 | [2] 0.007 | [3] 0.035 | [4] -0.019 | [5] 0.024

C12orf65 (UniProt Q9H3J6)
inactive: [1] 0.04 | [2] 0.04 | [3] -0.097 | [4] 0.052 | [5] -0.019

C9orf64 (UniProt Q5T6V5)
inactive: [1] 0.022 | [2] -0.006 | [3] 0.032 | [4] -0.002 | [5] 0.01

C18orf25 isoform 2 (UniProt Q96B23)
inactive: [1] -0.005 | [2] 0.224 | [3] 0.008 | [4] 0.089 | [5] -0.003

C11orf54 (UniProt Q9H0W9)
inactive: [1] 0.015 | [2] -0.016 | [3] -0.028 | [4] -0.024 | [5] -0.016

C8orf82 (UniProt Q6P1X6)
inactive: [1] 0.076 | [2] -0.049 | [3] 0.011 | [4] -0.011 | [5] -0.103
